In US20140120109A1:
Where a chain is given by its changes, count along the chain named. These are yes or no findings as the source states them, for the method shown. Some binding calls cover weakened binding; strength is not graded here. For some of these results: Tags and fused reporters may be left off the sequences shown.

Amino acid sequences for entries named in this document (tags omitted). A change or cut given only in a name is not applied to a line headed by its entry.
UniProt O95150: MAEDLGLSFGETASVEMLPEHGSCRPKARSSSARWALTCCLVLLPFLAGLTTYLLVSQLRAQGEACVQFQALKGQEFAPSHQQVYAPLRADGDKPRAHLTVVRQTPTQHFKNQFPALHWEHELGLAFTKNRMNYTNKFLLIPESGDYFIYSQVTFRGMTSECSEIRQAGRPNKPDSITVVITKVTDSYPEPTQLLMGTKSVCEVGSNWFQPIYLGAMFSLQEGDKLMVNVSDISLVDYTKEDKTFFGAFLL
UniProt Q8K3Y7: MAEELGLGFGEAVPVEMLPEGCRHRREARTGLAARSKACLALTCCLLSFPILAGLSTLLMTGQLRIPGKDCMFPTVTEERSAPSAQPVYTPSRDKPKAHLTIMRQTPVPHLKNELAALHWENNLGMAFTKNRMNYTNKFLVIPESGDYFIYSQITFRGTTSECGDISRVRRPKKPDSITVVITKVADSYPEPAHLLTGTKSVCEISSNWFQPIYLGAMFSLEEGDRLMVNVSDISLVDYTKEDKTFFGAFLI

Assays:
[1] = target: T1, cynomolgus monkey TL1A, soluble, CHO-expressed, residues 72-251 of SEQ ID NO:248 with N-terminal His6-tag (cynomolgus monkey (Macaca fascicularis)); assay: SPR
T1 sequence: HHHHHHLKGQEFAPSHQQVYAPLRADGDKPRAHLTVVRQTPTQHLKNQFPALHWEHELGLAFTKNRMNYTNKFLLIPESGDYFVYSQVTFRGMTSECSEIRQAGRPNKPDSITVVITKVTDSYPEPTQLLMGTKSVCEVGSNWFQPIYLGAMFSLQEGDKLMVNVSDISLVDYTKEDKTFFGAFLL

[2] = target: human TL1A, soluble, CHO-expressed, residues 72-251 of SEQ ID NO:244 with N-terminal His6-tag (human) (UniProt O95150); assay: SPR
[3] = target: rat TL1A, soluble, CHO-expressed, residues 76-252 of SEQ ID NO:258 with N-terminal His6-tag (rat) (UniProt Q8K3Y7); assay: SPR
[4] = target: T1, cynomolgus monkey TL1A, soluble, CHO-expressed, residues 72-251 of SEQ ID NO:248 with N-terminal His6-tag (cynomolgus monkey (Macaca fascicularis)); assay: SPR; SPR, statement in words, no number

B1: H4H1719P (antibody, human IgG4 S228P, V domains shown)
VH: EVQLVESGGGLVQPGRSLRLSCVASGFTFQDYAMHWVRQAPGKGLEWVSGINWISDDMGYADSVMGRFTISRDNAKNSLYLQMDSLRAEDTALYYCAKDKGLRFLDYVMDVWGQGTTVTVSA
VL: DIVMTQSPLSLPVTPGEPASISCRSTQSLLHRNGHNYLHWYLHKPGQSPQLLIHLGSNRASGVPDRFSGSGSGTDFTLKISRVEAEDVGVYYCMQALQTPYTFGQGTKLEIK
binding [1]: binds
binding [2]: binds
binding [3]: binds

B2: H4H1738P (antibody, human IgG4 S228P, V domains shown)
VH: EVQLVESGGALVKPGGSLRLSCAVSGFTFINDWMNWVRQAPGKGLEWVGRIKSTTDGGTTDDAAPVKGRFTISRDDSKNTLYLQMNSLKTEDTAVYYCTRDRNRQRNYFYDGMDVWGQGTTVTVSA
VL: B1 VL with L9V, T26S, S28R, R32N, H35N, H39D, H43Q, H54Y, I80V
binding [1]: binds
binding [2]: binds

B3: H4H1750P (antibody, human IgG4 S228P, V domains shown)
VH: QVQLVESGGGVVQPGRSLRLSCVASGFTFSNYGMHWVRQAPGKGLEWVAVISYDGNNDLYSDSVKGRFTISRDNAKNALSLQMTSLRAEDTAVYYCARDSTMTPYYYHGIDVWGQGTTVTVSA
VL: DIQMTQSPSSLSASVGDRVTITCRASQDIRNDLGWYQQKPGKAPKRLIYAASSLQSGVPSRFSGSGSGTDFTLTISSLQPEDFATYYCLQHNSYPPTFGQGTKVEIK
binding [2]: binds
binding [4]: binds
